Source: the supplement of paper PMC4604168 (melanoma cell lines)
This is one part of the list. Repeats are few or missing, and single values can be far off.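 Imaging used 1,536-well plates; nuclei positive for cleaved PARP by antibody were divided by total DNA-stained nuclei to yield the apoptosis fraction. Doses for screening kept most cells viable, and cell lines differ markedly in resting and induced cleaved-PARP levels.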

The compounds below were run on 501Mel (assay: cleaved PARP positive nuclei fraction relative to DMSO control; melanoma cells; higher = more apoptosis). Details: library dose: low library concentration; 72 h.

| Structure (SMILES) | cleaved PARP positive nuclei fraction [%] |
| --- | --- |
| O=c1[nH]nc(Sc2ncc([N+](=O)[O-])s2)n1-c1ccc2c(c1)OCCO2 + COc1cc2c(Oc3ccc4[nH]c(C)cc4c3F)ncnc2cc1OCCCN1CCCC1 [cediranib] (first compound 0.2 µM, partner dose 0.4 µM) | 155 |
| Cc1cc(Nc2cc(N3CCN(C)CC3)nc(Sc3ccc(NC(=O)C4CC4)cc3)n2)n[nH]1 [Tozasertib] + NC(=O)Nc1cc(-c2cccc(F)c2)sc1C(=O)N[C@H]1CCCNC1 [AZD7762] (first compound 0.006 µM, partner dose 0.02 µM) | 83.2 |
| Cc1cn(-c2cc(NC(=O)c3ccc(C)c(Nc4nccc(-c5cccnc5)n4)c3)cc(C(F)(F)F)c2)cn1 [nilotinib] + O=C(Nc1cccc(Cl)c1)Nc1ncc(CCNc2ncnc3ccsc23)s1 [SNS314] (first compound 0.2 µM, partner dose 0.0008 µM) | 210 |
| CCCCCCCCCCCCCCCCCCOP(=O)([O-])OC1CC[N+](C)(C)CC1 [Perifosine] + CC(C)(C)c1cnc(CSc2cnc(NC(=O)C3CCNCC3)s2)o1 [SNS-032] (first compound 0.4 µM, partner dose 0.01 µM) | 304 |
| O=C(Nc1cc(C(F)(F)F)cc(C(F)(F)F)c1)c1cc(Cl)ccc1O + NCC(=O)Nc1ccc(-n2nc(C(F)(F)F)cc2-c2ccc3c(ccc4ccccc43)c2)cc1 [OSU03012] (first compound 0.016 µM, partner dose 1 µM) | 195 |
| CCCCCCCCCCCCCCCCCCOP(=O)([O-])OC1CC[N+](C)(C)CC1 [Perifosine] + O=C(O)c1ccc(-c2c[nH]c3ncc(-c4ccccc4)cc23)cc1C1CCCC1 [GSK650394] (first compound 0.4 µM, partner dose 0.16 µM) | 91.5 |
| O=C(Nc1cc(C(F)(F)F)cc(C(F)(F)F)c1)c1cc(Cl)ccc1O + C[C@@H]1CCN(C(=O)CC#N)C[C@@H]1N(C)c1ncnc2[nH]ccc12 [CP690550] (first compound 0.016 µM, partner dose 1 µM) | 196 |
| CC[C@]1(O)C[C@H]2CN(CCc3c([nH]c4ccccc34)[C@@](C(=O)OC)(c3cc4c(cc3OC)N(C=O)[C@H]3[C@@](O)(C(=O)OC)[C@H](OC(C)=O)[C@]5(CC)C=CCN6CC[C@]43[C@@H]65)C2)C1 [vincristine] + CO[C@@H]1[C@H](N(C)C(=O)c2ccccc2)C[C@H]2O[C@]1(C)n1c3ccccc3c3c4c(c5c6ccccc6n2c5c31)C(=O)NC4 [Midostaurin] (first compound 0.0001 µM, partner dose 0.08 µM) | 81.6 |
| COc1cc([C@@H]2c3cc4c(cc3[C@@H](O[C@@H]3O[C@@H]5CO[C@@H](C)O[C@H]5[C@H](O)[C@H]3O)[C@H]3COC(=O)[C@H]23)OCO4)cc(OC)c1O [etoposide] + OCCn1cc(-c2cnc3nnn(Cc4ccc5ncccc5c4)c3n2)cn1 [PF04217903] (first compound 0.02 µM, partner dose 1 µM) | 70.8 |
| CCCCCCCCCCCCCCCCCCOP(=O)([O-])OC1CC[N+](C)(C)CC1 [Perifosine] + C[C@@H]1CCN(C(=O)CC#N)C[C@@H]1N(C)c1ncnc2[nH]ccc12 [CP690550] (first compound 0.4 µM, partner dose 1 µM) | 84.9 |
| O=C(/C=C/c1cccnc1)NCCCCC1CCN(C(=O)c2ccccc2)CC1 + Cc1ccc(NC(=O)c2cccc(N(C)C)c2)cc1NC(=O)c1ccc(O)cc1 [ZM336372] (first compound 0.01 µM, partner dose 2 µM) | 102 |
| Cc1ccc(Nc2nccc(N(C)c3ccc4c(C)n(C)nc4c3)n2)cc1S(N)(=O)=O [Pazopanib] + COc1cc(Nc2ncc(F)c(Nc3ccc4c(n3)NC(=O)C(C)(C)O4)n2)cc(OC)c1OC [Tamatinib] (first compound 0.4 µM, partner dose 0.4 µM) | 87.9 |
| N#CC[C@H](C1CCCC1)n1cc(-c2ncnc3[nH]ccc23)cn1 [ruxolitinib] + COc1cc(Nc2ncc(F)c(Nc3ccc4c(n3)NC(=O)C(C)(C)O4)n2)cc(OC)c1OC [Tamatinib] (first compound 1 µM, partner dose 0.4 µM) | 87.8 |
| COc1cc([C@@H]2c3cc4c(cc3[C@@H](O[C@@H]3O[C@@H]5CO[C@@H](C)O[C@H]5[C@H](O)[C@H]3O)[C@H]3COC(=O)[C@H]23)OCO4)cc(OC)c1O [etoposide] + CN(NC(=O)CC(=O)NN(C)C(=S)c1ccccc1)C(=S)c1ccccc1 [STA4783] (first compound 0.02 µM, partner dose 0.006 µM) | 179 |
| O=C(Nc1cc(C(F)(F)F)cc(C(F)(F)F)c1)c1cc(Cl)ccc1O + O=C(Nc1cccc(Cl)c1)Nc1ncc(CCNc2ncnc3ccsc23)s1 [SNS314] (first compound 0.016 µM, partner dose 0.0008 µM) | 65.5 |
| Cc1cn(-c2cc(NC(=O)c3ccc(C)c(Nc4nccc(-c5cccnc5)n4)c3)cc(C(F)(F)F)c2)cn1 [nilotinib] + NC(=O)Nc1cc(-c2cccc(F)c2)sc1C(=O)N[C@H]1CCCNC1 [AZD7762] (first compound 0.2 µM, partner dose 0.02 µM) | 72 |
| Cc1cn(-c2cc(NC(=O)c3ccc(C)c(Nc4nccc(-c5cccnc5)n4)c3)cc(C(F)(F)F)c2)cn1 [nilotinib] + O=C(O)c1ccc(-c2c[nH]c3ncc(-c4ccccc4)cc23)cc1C1CCCC1 [GSK650394] (first compound 0.2 µM, partner dose 0.16 µM) | 91.9 |
| O=C(/C=C/c1cccnc1)NCCCCC1CCN(C(=O)c2ccccc2)CC1 + CC(C)(C)c1cnc(CSc2cnc(NC(=O)C3CCNCC3)s2)o1 [SNS-032] (first compound 0.01 µM, partner dose 0.01 µM) | 81.6 |
| Cc1cn(-c2cc(NC(=O)c3ccc(C)c(Nc4nccc(-c5cccnc5)n4)c3)cc(C(F)(F)F)c2)cn1 [nilotinib] + O=C(CCCCCCC(=O)Nc1ccccc1)NO [vorinostat] (first compound 0.2 µM, partner dose 0.08 µM) | 121 |
| N#CC[C@H](C1CCCC1)n1cc(-c2ncnc3[nH]ccc23)cn1 [ruxolitinib] + O=C(O)c1ccc(-c2c[nH]c3ncc(-c4ccccc4)cc23)cc1C1CCCC1 [GSK650394] (first compound 1 µM, partner dose 0.16 µM) | 69.8 |
| O=C(Nc1cc(C(F)(F)F)cc(C(F)(F)F)c1)c1cc(Cl)ccc1O + CO[C@@H]1[C@H](N(C)C(=O)c2ccccc2)C[C@H]2O[C@]1(C)n1c3ccccc3c3c4c(c5c6ccccc6n2c5c31)C(=O)NC4 [Midostaurin] (first compound 0.016 µM, partner dose 0.08 µM) | 265 |
| N#CC[C@H](C1CCCC1)n1cc(-c2ncnc3[nH]ccc23)cn1 [ruxolitinib] + Cc1ccc(NC(=O)c2cccc(N(C)C)c2)cc1NC(=O)c1ccc(O)cc1 [ZM336372] (first compound 1 µM, partner dose 2 µM) | 47.4 |
| N#CC[C@H](C1CCCC1)n1cc(-c2ncnc3[nH]ccc23)cn1 [ruxolitinib] + CC1(C)NC(=O)N(c2ccc([N+](=O)[O-])c(C(F)(F)F)c2)C1=O [nilutamide] (first compound 1 µM, partner dose 1 µM) | 90 |
| CC[C@]1(O)C[C@H]2CN(CCc3c([nH]c4ccccc34)[C@@](C(=O)OC)(c3cc4c(cc3OC)N(C=O)[C@H]3[C@@](O)(C(=O)OC)[C@H](OC(C)=O)[C@]5(CC)C=CCN6CC[C@]43[C@@H]65)C2)C1 [vincristine] + O=C(Nc1cccc(Cl)c1)Nc1ncc(CCNc2ncnc3ccsc23)s1 [SNS314] (first compound 0.0001 µM, partner dose 0.0008 µM) | 81 |
| Cc1cn(-c2cc(NC(=O)c3ccc(C)c(Nc4nccc(-c5cccnc5)n4)c3)cc(C(F)(F)F)c2)cn1 [nilotinib] + CC(C)(C)c1cnc(CSc2cnc(NC(=O)C3CCNCC3)s2)o1 [SNS-032] (first compound 0.2 µM, partner dose 0.01 µM) | 77.3 |
| COc1cc([C@@H]2c3cc4c(cc3[C@@H](O[C@@H]3O[C@@H]5CO[C@@H](C)O[C@H]5[C@H](O)[C@H]3O)[C@H]3COC(=O)[C@H]23)OCO4)cc(OC)c1O [etoposide] + NC(=O)Nc1cc(-c2cccc(F)c2)sc1C(=O)N[C@H]1CCCNC1 [AZD7762] (first compound 0.02 µM, partner dose 0.02 µM) | 173 |
| Cc1cc(Nc2cc(N3CCN(C)CC3)nc(Sc3ccc(NC(=O)C4CC4)cc3)n2)n[nH]1 [Tozasertib] + Cn1cncc1[C@@](N)(c1ccc(Cl)cc1)c1ccc2c(c1)c(-c1cccc(Cl)c1)cc(=O)n2C [tipifarnib] (first compound 0.006 µM, partner dose 0.01 µM) | 73.2 |
| Cc1ccc(Nc2nccc(N(C)c3ccc4c(C)n(C)nc4c3)n2)cc1S(N)(=O)=O [Pazopanib] + Cn1cncc1[C@@](N)(c1ccc(Cl)cc1)c1ccc2c(c1)c(-c1cccc(Cl)c1)cc(=O)n2C [tipifarnib] (first compound 0.4 µM, partner dose 0.01 µM) | 96.9 |

Part of the list above in another layout:
CCCCCCCCCCCCCCCCCCOP(=O)([O-])OC1CC[N+](C)(C)CC1 [Perifosine] + O=C(O)c1ccc(-c2c[nH]c3ncc(-c4ccccc4)cc23)cc1C1CCCC1 [GSK650394] (first compound 0.4 µM, partner dose 0.16 µM)
  cleaved PARP positive nuclei fraction [%]: 91.5
O=C(Nc1cc(C(F)(F)F)cc(C(F)(F)F)c1)c1cc(Cl)ccc1O + C[C@@H]1CCN(C(=O)CC#N)C[C@@H]1N(C)c1ncnc2[nH]ccc12 [CP690550] (first compound 0.016 µM, partner dose 1 µM)
  cleaved PARP positive nuclei fraction [%]: 196
